Source: doi:10.1101/2025.10.14.682279
Results are given in words; binding and its absence hold for the method and conditions named. Binding seen in cells or lysates may run through a third protein. Some binding calls cover weakened binding; strength is not graded here.

Sequences of proteins named here, by UniProt entry; tags and fusion partners are left off.
UniProt P56524: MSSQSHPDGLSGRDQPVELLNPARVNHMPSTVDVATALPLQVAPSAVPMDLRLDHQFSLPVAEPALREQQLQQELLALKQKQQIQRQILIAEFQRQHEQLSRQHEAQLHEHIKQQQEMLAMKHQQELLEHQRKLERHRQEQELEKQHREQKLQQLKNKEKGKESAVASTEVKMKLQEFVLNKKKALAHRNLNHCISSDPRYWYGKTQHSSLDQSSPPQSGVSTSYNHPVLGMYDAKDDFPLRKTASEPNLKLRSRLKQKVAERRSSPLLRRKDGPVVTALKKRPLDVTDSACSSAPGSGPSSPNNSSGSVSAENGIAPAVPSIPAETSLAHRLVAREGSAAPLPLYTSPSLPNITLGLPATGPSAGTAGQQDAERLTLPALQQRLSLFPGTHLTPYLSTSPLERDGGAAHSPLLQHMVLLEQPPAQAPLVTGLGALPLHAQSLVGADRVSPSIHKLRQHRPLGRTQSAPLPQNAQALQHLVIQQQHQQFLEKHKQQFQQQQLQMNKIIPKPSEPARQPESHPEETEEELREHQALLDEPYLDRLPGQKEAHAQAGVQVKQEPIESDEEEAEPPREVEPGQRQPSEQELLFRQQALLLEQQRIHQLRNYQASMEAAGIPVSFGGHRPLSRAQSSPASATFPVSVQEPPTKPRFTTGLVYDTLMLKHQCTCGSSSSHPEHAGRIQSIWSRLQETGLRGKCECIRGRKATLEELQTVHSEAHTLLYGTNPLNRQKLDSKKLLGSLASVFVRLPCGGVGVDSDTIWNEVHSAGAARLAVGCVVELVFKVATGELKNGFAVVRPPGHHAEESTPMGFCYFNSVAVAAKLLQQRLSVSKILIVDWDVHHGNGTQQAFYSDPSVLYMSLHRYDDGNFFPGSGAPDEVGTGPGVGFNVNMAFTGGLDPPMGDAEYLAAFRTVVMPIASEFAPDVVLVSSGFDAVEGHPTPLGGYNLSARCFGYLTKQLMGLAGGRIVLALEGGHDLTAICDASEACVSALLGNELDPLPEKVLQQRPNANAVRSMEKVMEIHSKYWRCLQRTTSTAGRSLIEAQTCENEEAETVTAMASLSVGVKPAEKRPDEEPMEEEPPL
UniProt O15379: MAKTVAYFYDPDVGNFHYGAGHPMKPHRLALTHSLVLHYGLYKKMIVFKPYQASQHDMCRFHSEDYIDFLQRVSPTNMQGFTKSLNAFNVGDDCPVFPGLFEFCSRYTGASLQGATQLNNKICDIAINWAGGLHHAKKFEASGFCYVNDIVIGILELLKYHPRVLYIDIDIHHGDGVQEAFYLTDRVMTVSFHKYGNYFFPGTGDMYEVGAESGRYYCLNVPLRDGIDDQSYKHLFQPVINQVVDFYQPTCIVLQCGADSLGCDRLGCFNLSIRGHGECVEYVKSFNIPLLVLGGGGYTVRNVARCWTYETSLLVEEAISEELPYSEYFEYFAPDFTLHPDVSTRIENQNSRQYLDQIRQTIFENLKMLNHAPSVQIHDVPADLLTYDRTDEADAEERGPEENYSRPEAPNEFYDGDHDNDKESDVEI

Target: Flag-HDAC4-WT (wild-type histone deacetylase 4) (human) (UniProt P56524)
Assay: co-IP

binding: binds
Substance: HDAC3 (from UniProt O15379 1-428)
